No constants are given. Whether binding was seen depends on the method and setting. Binding seen in cells or lysates may run through a third protein. Some entries that bind do so weakly or less than the wild type. Each block holds one molecule with its values, some of them ahead of it.
Biological target: T1, One Cut Homeobox 2 (ONECUT2) (human (endogenous in MDA-231)) (UniProt O95948)
T1 sequence: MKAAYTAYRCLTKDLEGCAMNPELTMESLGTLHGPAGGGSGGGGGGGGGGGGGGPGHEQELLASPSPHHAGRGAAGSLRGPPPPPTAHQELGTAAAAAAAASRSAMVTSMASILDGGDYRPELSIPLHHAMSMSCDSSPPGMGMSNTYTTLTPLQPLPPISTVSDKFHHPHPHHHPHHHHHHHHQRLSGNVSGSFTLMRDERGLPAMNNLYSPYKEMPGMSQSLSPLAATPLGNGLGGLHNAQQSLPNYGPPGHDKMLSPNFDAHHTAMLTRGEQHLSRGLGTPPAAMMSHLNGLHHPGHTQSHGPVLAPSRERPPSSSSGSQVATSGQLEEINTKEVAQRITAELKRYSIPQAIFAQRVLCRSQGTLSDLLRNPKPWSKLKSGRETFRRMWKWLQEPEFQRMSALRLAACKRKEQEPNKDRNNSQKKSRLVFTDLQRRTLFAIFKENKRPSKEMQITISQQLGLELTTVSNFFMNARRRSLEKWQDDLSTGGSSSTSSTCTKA
Assay: co-IP; lysates of 1 x 10^7 MDA-231 cells incubated with anti-ONECUT2 antibody or IgG isotype control overnight at 4 °C, then protein A/G magnetic beads for 6 h, eluted for western blotting (Epizyme Co-IP Kit)

The chains behind the UniProt entries cited, without tags or fusion partners.
UniProt P35222: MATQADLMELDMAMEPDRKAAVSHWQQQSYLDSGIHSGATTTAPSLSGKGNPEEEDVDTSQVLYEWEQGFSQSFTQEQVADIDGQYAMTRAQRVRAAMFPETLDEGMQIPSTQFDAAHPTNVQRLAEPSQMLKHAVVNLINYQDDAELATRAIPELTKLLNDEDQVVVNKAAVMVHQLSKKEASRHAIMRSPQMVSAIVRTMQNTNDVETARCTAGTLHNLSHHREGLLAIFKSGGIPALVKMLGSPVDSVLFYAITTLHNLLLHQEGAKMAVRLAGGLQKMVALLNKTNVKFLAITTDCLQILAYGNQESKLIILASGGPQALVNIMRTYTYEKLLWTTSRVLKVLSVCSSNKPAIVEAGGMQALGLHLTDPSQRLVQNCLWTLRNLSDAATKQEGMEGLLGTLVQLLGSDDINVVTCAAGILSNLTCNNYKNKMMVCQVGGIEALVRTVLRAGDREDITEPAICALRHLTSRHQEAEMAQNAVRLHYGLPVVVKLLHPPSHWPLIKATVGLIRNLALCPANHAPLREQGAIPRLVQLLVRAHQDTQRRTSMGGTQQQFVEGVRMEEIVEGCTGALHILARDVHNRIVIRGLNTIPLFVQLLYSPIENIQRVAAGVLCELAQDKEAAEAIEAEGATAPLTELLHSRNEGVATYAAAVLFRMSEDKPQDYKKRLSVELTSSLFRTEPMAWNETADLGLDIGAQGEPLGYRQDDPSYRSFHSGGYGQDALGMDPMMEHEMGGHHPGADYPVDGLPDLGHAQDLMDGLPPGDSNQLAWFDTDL

binding: binds
Molecule: beta-catenin (from UniProt P35222 1-781)

binding: binds
B1: POU6F2 (POU domain, class 6, transcription factor 2) (protein, UniProt P78424 1-691)
chain: MSALLQDPMIAGQVSKPLLSVRSEMNAELRGEDKAATSDSELNEPLLAPVESNDSEDTPSKLFGARGNPALSDPGTPDQHQASQTHPPFPVGPQPLLTAQQLASAVAGVMPGGPPALNQPILIPFNMAGQLGGQQGLVLTLPTANLTNIQGLVAAAAAGGIMTLPLQNLQATSSLNSQLQQLQLQLQQQQQQQQQQPPPSTNQHPQPAPQAPSQSQQQPLQPTPPQQPPPASQQPPAPTSQLQQAPQPQQHQPHSHSQNQNQPSPTQQSSSPPQKPSQSPGHGLPSPLTPPNPLQLVNNPLASQAAAAAAAMSSIASSQAFGNALSSLQGVTGQLVTNAQGQIIGTIPLMPNPGPSSQAASGTQGLQVQPITPQLLTNAQGQIIATVIGNQILPVINTQGITLSPIKPGQQLHQPSQTSVGQAASQGNLLHLAHSQASMSQSPVRQASSSSSSSSSSSALSVGQLVSNPQTAAGEVDGVNLEEIREFAKAFKIRRLSLGLTQTQVGQALSATEGPAYSQSAICRHTILRSHFFLPQEAQENTIASSLTAKLNPGLLYPARFEKLDITPKSAQKIKPVLERWMAEAEARHRAGMQNLTEFIGSEPSKKRKRRTSFTPQALEILNAHFEKNTHPSGQEMTEIAEKLNYDREVVRVWFCNKRQALKNTIKRLKQHEPATAVPLEPLTDSLEENS

Reference: article PMC13443588
